This continues a long series; more values of the same kind are listed elsewhere.
Experiments:
Test in all cases: concentration in plasma after dosing
Mouse [1] = conditions: 5 h; dosed: 2-Hydroxy-4-methoxybenzophenone; 250 mg/kg; oral; Male; B6C3F1
Mouse [2] = conditions: 4 h; dosed: 2-Hydroxy-4-methoxybenzophenone; 250 mg/kg; oral; Male; B6C3F1
Mouse [3] = conditions: 1.5 h; dosed: 2-Hydroxy-4-methoxybenzophenone; 50 mg/kg; iv; Female; B6C3F1
Rat [4] = conditions: 10 min; dosed: 2-Hydroxy-4-methoxybenzophenone; 8 mg/kg; iv; Female; F344
Mouse [5] = conditions: 12 h; dosed: 2-Hydroxy-4-methoxybenzophenone; 50 mg/kg; iv; Male; B6C3F1
Rat [6] = conditions: 5 min; dosed: 2-Hydroxy-4-methoxybenzophenone; 8 mg/kg; iv; Male; F344
Rat [7] = conditions: dosed: 2-Hydroxy-4-methoxybenzophenone, 500 mg/kg, oral, Female, F344
Rat [8] = conditions: 2 h; dosed: 2-Hydroxy-4-methoxybenzophenone; 250 mg/kg; oral; Female; F344
Mouse [9] = conditions: 5 min; dosed: 2-Hydroxy-4-methoxybenzophenone; 250 mg/kg; oral; Female; B6C3F1
Mouse [10] = conditions: 1 h; dosed: 2-Hydroxy-4-methoxybenzophenone; 500 mg/kg; oral; Male; B6C3F1
Mouse [11] = conditions: 0.5 h; dosed: 2-Hydroxy-4-methoxybenzophenone; 500 mg/kg; oral; Male; B6C3F1
Mouse [12] = conditions: 1 h; dosed: 2-Hydroxy-4-methoxybenzophenone; 50 mg/kg; iv; Female; B6C3F1
Mouse [13] = conditions: dosed: 2-Hydroxy-4-methoxybenzophenone, 100 mg/kg, oral, Male, B6C3F1
Rat [14] = conditions: dosed: 2-Hydroxy-4-methoxybenzophenone, 100 mg/kg, oral, Female, F344
Mouse [15] = conditions: 5 h; dosed: 2-Hydroxy-4-methoxybenzophenone; 250 mg/kg; oral; Male; B6C3F1; remark: listed apart in the source
Mouse [16] = conditions: 0.5 h; dosed: 2-Hydroxy-4-methoxybenzophenone; 250 mg/kg; oral; Female; B6C3F1
Mouse [17] = conditions: 1 h; dosed: 2-Hydroxy-4-methoxybenzophenone; 500 mg/kg; oral; Female; B6C3F1
Mouse [18] = conditions: 1 h; dosed: 2-Hydroxy-4-methoxybenzophenone; 500 mg/kg; oral; Male; B6C3F1; remark: listed apart in the source
Mouse [19] = conditions: 5 min; dosed: 2-Hydroxy-4-methoxybenzophenone; 500 mg/kg; oral; Female; B6C3F1
Mouse [20] = conditions: 1.5 h; dosed: 2-Hydroxy-4-methoxybenzophenone; 50 mg/kg; iv; Male; B6C3F1
Rat [21] = conditions: dosed: 2-Hydroxy-4-methoxybenzophenone, 250 mg/kg, oral, Male, F344
Rat [22] = conditions: 6 h; dosed: 2-Hydroxy-4-methoxybenzophenone; 500 mg/kg; oral; Female; F344
Mouse [23] = conditions: 0.5 h; dosed: 2-Hydroxy-4-methoxybenzophenone; 500 mg/kg; oral; Male; B6C3F1; remark: listed apart in the source
Mouse [24] = conditions: 2.5 min; dosed: 2-Hydroxy-4-methoxybenzophenone; 500 mg/kg; oral; Female; B6C3F1
Rat [25] = conditions: 16 h; dosed: 2-Hydroxy-4-methoxybenzophenone; 500 mg/kg; oral; Female; F344
Mouse [26] = conditions: 4 h; dosed: 2-Hydroxy-4-methoxybenzophenone; 250 mg/kg; oral; Female; B6C3F1
Mouse [27] = conditions: 8 h; dosed: 2-Hydroxy-4-methoxybenzophenone; 500 mg/kg; oral; Male; B6C3F1
Mouse [28] = conditions: 4 h; dosed: 2-Hydroxy-4-methoxybenzophenone; 250 mg/kg; oral; Male; B6C3F1; remark: listed apart in the source
Mouse [29] = conditions: 5 min; dosed: 2-Hydroxy-4-methoxybenzophenone; 250 mg/kg; oral; Male; B6C3F1
Mouse [30] = conditions: 8 h; dosed: 2-Hydroxy-4-methoxybenzophenone; 500 mg/kg; oral; Male; B6C3F1; remark: listed apart in the source
Mouse [31] = conditions: 8 h; dosed: 2-Hydroxy-4-methoxybenzophenone; 50 mg/kg; iv; Female; B6C3F1
Mouse [32] = conditions: 6 h; dosed: 2-Hydroxy-4-methoxybenzophenone; 50 mg/kg; iv; Male; B6C3F1
Rat [33] = conditions: dosed: Perfluorohexanoic Acid, 40 mg/kg, oral, Female, Harlan Sprague Dawley
Rat [34] = conditions: 1.5 h; dosed: Perfluorohexanoic Acid; 40 mg/kg; Male; F344
Rat [35] = conditions: dosed: Perfluorohexanoic Acid, 40 mg/kg, Male, F344
Rat [36] = conditions: dosed: Perfluorohexanoic Acid, 160 mg/kg, oral, Female, Harlan Sprague Dawley
Rat [37] = conditions: dosed: Perfluorohexanoic Acid, 40 mg/kg, oral, Female, Harlan Sprague Dawley; remark: listed apart in the source

O=C(c1ccccc1)c1ccc(O)cc1O [2,4-Dihydroxybenzophenone]
Conditions | concentration in plasma [ng/mL]
Mouse [1] | 200
Mouse [2] | 293
Mouse [3] | 53.8
Mouse [5] | 64.3
Mouse [9] | 74.3
Mouse [10] | 638
Mouse [11] | 2860
Mouse [12] | 83.6
Rat [4] | 97.9
Rat [6] | 72.4
Rat [8] | 147

concentration in plasma [ng/mL]
Conditions | 0.5 h | 0.75 h | 1 h | 1.5 h | 2 h | 4 h | 5 h | 5 min | 6 h
Mouse [13] | 397 | 297 | 206 | 144 | – | 130 | 122 | 135 | 124
Rat [7] | – | – | – | – | 561 | – | – | 41.2 | –

COc1ccc(C(=O)c2ccccc2)c(O)c1 [2-Hydroxy-4-methoxybenzophenone]
concentration in plasma [ng/mL]
Conditions | 0.5 h | 2 h | 5 h | 5 min
Rat [14] | 92.5 | – | 6.28 | –
Rat [21] | – | 123 | – | 12.3

Conditions | concentration in plasma [ng/mL]
Mouse [15] | 18.6
Mouse [16] | 9.73
Mouse [17] | 302
Mouse [18] | 265
Mouse [19] | 1000
Mouse [20] | 431
Mouse [23] | 479
Mouse [24] | 178
Mouse [26] | 19.5
Mouse [27] | 32
Mouse [28] | 26.1
Mouse [29] | 34.8
Mouse [30] | 18.6
Mouse [31] | 29.4
Mouse [32] | 38.6
Rat [22] | 60
Rat [25] | 19.6

O=C(O)C(F)(F)C(F)(F)C(F)(F)C(F)(F)C(F)(F)F [Perfluorohexanoic Acid]
Conditions | concentration in plasma [ng/mL]
Rat [33], 0.5 h | 41700
Rat [33], 9 h | 218
Rat [35], 3 h | 830
Rat [35], 5 min | 285000
Rat [36], 0.5 h | 156000
Rat [36], 9 h | 862
Rat [37], 0.75 h | 51700
Rat [37], 12 h | 102

Conditions | concentration in plasma [ng/mL]
Rat [34] | 4950
